Measurements reported in PubChem BioAssay AID743121 (NCATS, 2013).

- Screen: 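Knock-downs that sensitise breast cancer cells to camptothecin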 (primary screen)
- Cells: MDA-MB-231 cells, a human breast cancer line
- Reagent: single siRNA against human genes, 20 nM siRNA (0.8 pmol per well)
- Time to read-out: 120 h (drug added 48 h after transfection, read 72 h later)
- Treatment: camptothecin 20 nM (about EC30) for 72 h; vehicle 0.1% DMSO in parallel plates
- Detection: 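Cell viability by ATP luminescence (CellTiter-Glo) as % of non-targeting siRNA wells, and the log2 ratio of viability without drug over viability with camptothecin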
- Direction: log2 vehicle/camptothecin viability: higher = stronger sensitisation to camptothecin; viability with camptothecin: higher = more viable cells
- Rule for the call: 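Each gene scored by redundant siRNA activity (RSA) over its individual siRNA ratios; a gene is called active at p < 0.001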
The deposit covers about 26,000 reagents; shown is a random part of them. 167 of all reagents (0.63%) count as active. 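Calls are per gene from RSA p-values that are not deposited; an individual active-marked siRNA can sensitise only weakly.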 Unmarked entries are inactive. The numbers tell different reagents against one gene apart. Further read-outs or replicates are left out here.

no.	Gene	reagent	log2 vehicle/camptothecin viability	viability with camptothecin (% of control)
1	DOK6 (GeneID 220164)	1	-0.527	89.7
2	DOK6 (GeneID 220164)	2	-0.381	64.8
3	DOK6 (GeneID 220164)	3	0.542	59
4	CD58 (GeneID 965)	1	0.0472	92.7
5	CD58 (GeneID 965)	2	-0.552	87.5
6	CD58 (GeneID 965)	3	-0.352	104
7	DGKA (GeneID 1606)	1	-0.512	59.9
8	DGKA (GeneID 1606)	2	0.579	58.2
9	DGKA (GeneID 1606)	3	-0.315	92.3
10	DGKA (GeneID 1606)	4	-0.247	40.7
11	MYOD1 (GeneID 4654)	1	-0.467	95.4
12	MYOD1 (GeneID 4654)	2	-1.16	81.9
13	MYOD1 (GeneID 4654)	3	-0.148	96.9
14	MYOD1 (GeneID 4654)	4	-0.0913	104
15	CYSLTR2 (GeneID 57105)	1	-0.414	118
16	CYSLTR2 (GeneID 57105)	2	-0.147	68.6
17	CYSLTR2 (GeneID 57105)	3	-0.226	116
18	CYSLTR2 (GeneID 57105)	4	-0.152	85.9

Continued (3 carried over from the part before).
no.	Gene	reagent	log2 vehicle/camptothecin viability	viability with camptothecin (% of control)
16	CYSLTR2 (GeneID 57105)	2	-0.147	68.6
17	CYSLTR2 (GeneID 57105)	3	-0.226	116
18	CYSLTR2 (GeneID 57105)	4	-0.152	85.9
19	PNLIP (GeneID 5406)	1	-0.393	83.7
20	PNLIP (GeneID 5406)	2	0.606	14.3
21	PNLIP (GeneID 5406)	3	0.314	83.9
22	PNLIP (GeneID 5406)	4	-0.252	93.8
23	NRXN2 (GeneID 9379)	1	-0.33	76.9
24	NRXN2 (GeneID 9379)	2	-0.54	20.8
25	NRXN2 (GeneID 9379)	3	0.15	47
26	NRXN2 (GeneID 9379)	4	-0.421	42.3
27	NBN (GeneID 4683)	1	-0.262	83.3
28	NBN (GeneID 4683)	2	-0.583	56.8
29	NBN (GeneID 4683)	3	-0.228	61.5
30	HSP90B1 (GeneID 7184)	1	-0.559	69.6
31	HSP90B1 (GeneID 7184)	2	0.48	20.4
32	HSP90B1 (GeneID 7184)	3	-0.0893	98.7
33	HSP90B1 (GeneID 7184)	4	-0.13	76.3
34	DCLK3 (GeneID 85443)	1	-0.154	59.7
35	DCLK3 (GeneID 85443)	2	0.41	64.2
36	DCLK3 (GeneID 85443)	3	-0.384	84.2
37	DCLK3 (GeneID 85443)	4	-0.507	56.3
38	GRIA4 (GeneID 2893)	1	0.0587	35.2
39	GRIA4 (GeneID 2893)	2	-0.0337	87.3
40	GRIA4 (GeneID 2893)	3	0.456	38.1
41	CNKSR3 (GeneID 154043)	1	0.0715	49.6
42	CNKSR3 (GeneID 154043)	2	-0.384	86.8
43	CNKSR3 (GeneID 154043)	3	-0.132	111
44	CNKSR3 (GeneID 154043)	4	-0.0935	55.2
45	EDARADD (GeneID 128178)	1	0.278	39.8
46	EDARADD (GeneID 128178)	2	-0.147	93.3
47	EDARADD (GeneID 128178)	3	0.00118	59.3
